# According to PubChem BioAssay AID1347075 (National Center for Advancing Translational Sciences (NCATS), 2019):
# The whole screen tested about 400,000 compounds, of which about 5,500 (1.4%) were called active. Inconclusive results, whose numbers are uncertain, are shown with a selection of clear calls. The call rests on the fitted dose curve; in most records, active means well fitted cell-killing curve with a large enough effect; inconclusive means small, poorly fitted or top-dose-only effect, or effect the other way; inactive means flat fitted curve, though single readings scatter. Potencies of inconclusive entries are doubtful fits and often do not repeat.
# Test: qHTS assay for MDR1-selective chemotherapeutics: Primary screen using the parental adenocarcinoma cell KB-3-1; further: nearly all actives have a fitted effect of over 60% in size
# Details: KB-3-1 viability, CellTiter-Glo ATP luminescence, 72 h; activity change, negative = cytotoxic: at 46.1 µM (top of the series)
# Procedure, shortened: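 Cytotoxicity measured as CellTiter-Glo luminescence after 72 h at 37 C. Compound titrations were pinned onto drug-naive KB-3-1 parental adenocarcinoma cells grown in DMEM with 10% FBS, and normalized data fitted to concentration-response curves.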
# On the % scale 0 is the no-effect control and ±100 the full control effect; potency means the concentration at half of the fitted maximal effect.
Structure (SMILES),Potency,"activity change, negative = cytotoxic"
COc1ccccc1NS(=O)(=O)c1ccc(NC(=O)c2ccccn2)cc1,inactive,
Cc1ccccc1C(=O)OC1CCN(C)CC1,"inconclusive: 18.4 µM [cytotoxic, single point]",
CCCCCn1c(-c2ccco2)nc2nc3ccccc3nc21,inactive,
CC(=O)Nc1ccc(S(=O)(=O)NNc2cccc(C)c2)cc1,"inconclusive: 29.1 µM [cytotoxic, single point]",
Cn1c(=O)n(Cc2ccc(Cl)cc2)c(=O)c2c1nc1n2CCN1Cc1ccco1,"inconclusive: 16.4 µM [cytotoxic, single point]",
COC(=O)/C(=N/Nc1ccccc1C)Sc1nnc(C(O)c2ccccc2)n1-c1ccccc1 (configuration not stated),inactive,
COc1ccc(C(=O)Nc2ncccc2C)cc1S(=O)(=O)N1CCCc2ccccc21,inactive,
O=C(C1CCC(Cn2c(=O)c3sccc3n(Cc3ccccc3)c2=O)CC1)N1CCOCC1 (configuration not stated),"inconclusive: 29.1 µM [cytotoxic, single point]",
CCOc1ccc(-c2cnc(NCc3cccc4ccccc34)n2CCOC)cc1,"inconclusive: 29.1 µM [cytotoxic, single point]",
COC(=O)[C@@]1(Sc2ccc(C)cc2)CC(=O)N(C(=O)/C=C/c2ccccc2)[C@@H]1c1ccccc1,"inconclusive: 29.1 µM [cytotoxic, single point]",
O=C(Nc1ccccc1F)c1ccc(Cn2nc(N3CCN(c4ccccc4)CC3)ccc2=O)o1,"inconclusive: 32.6 µM [cytotoxic, single point]",
Cn1cc(/C=N/NC(=O)c2cc3cc(Br)ccc3o2)c2ccccc21,"inconclusive: 29.1 µM [cytotoxic, single point]",
CCOC(=O)c1cccc(NC(=O)CSc2nncn2-c2ccccn2)c1,inactive,
Cc1cc(Cl)c2c(c1)[C@]1(C(=O)N2)[C@@H]2C(=O)N(Cc3ccccc3)C(=O)[C@@H]2[C@@H]2CCCN21,"inconclusive: 18.4 µM [cytotoxic, single point]",
O=S1(=O)c2ccc(Br)cc2N2CC[C@H](C2)N1Cc1ccc(Cl)cc1,"inconclusive: 2.91 µM [cytotoxic, full curve, poor fit]",
COc1cc(CNC[C@H]2O[C@@H](n3cnc(C(N)=O)n3)[C@H](O)[C@@H]2O)ccc1OCc1cccc(Cl)c1,inactive,
CCOc1ccc(OCCOC(=O)CN(C)S(=O)(=O)c2ccc(NC(C)=O)cc2)cc1,inactive,
COc1cc2c(NC3CCN(C)CC3)nc(N3CCCCC3)nc2cc1OCCCN(C)C,"inconclusive: 32.6 µM [cytotoxic, partial curve, poor fit]",
CC(C)(C)CN1CCN(Cc2cc3ccccc3[nH]2)CC1CCO (configuration not stated),"inconclusive: 29.1 µM [cytotoxic, single point]",
Cc1nc2ccccc2nc1/C=C/c1ccc(N(C)C)cc1,active: 5.17 µM,
O=S(=O)(NCC(c1ccc2c(c1)OCO2)N1CCN(c2ccccc2)CC1)c1ccccc1 (configuration not stated),"inconclusive: 13 µM [cytotoxic, partial curve, poor fit]",
O=C(NC1CCCCC1)c1ccc(CSc2nc3cccnc3n2Cc2cccc(F)c2)cc1,"inconclusive: 29.1 µM [cytotoxic, single point]",
COc1ccc2nc(N3C(=O)/C(=C/c4ccc(Cl)cc4)NC3=S)sc2c1,"inconclusive: 29.1 µM [cytotoxic, single point]",

Structure (SMILES),Potency,"activity change, negative = cytotoxic"
CCOC(=O)[C@]12CCCC=C1N(Cc1ccco1)C(=O)[C@H](CC(=O)NCc1ccc(OC)c(OC)c1)C2,inactive,
CCOc1ccc(NC(=O)c2ccc3c(c2)OCCO3)cc1S(=O)(=O)N(CC)CC,,inconclusive: -23.9%
Nc1[nH]c(C(=O)c2ccccc2)c(-c2ccncc2)c1C(=O)NCCc1c[nH]c2ccccc12,inactive,
Cc1ccccc1OCCC(=O)Nc1cccc(S(=O)(=O)Nc2ccccc2Cl)c1,"inconclusive: 18.4 µM [cytotoxic, single point]",
CCOC(=O)C1=C[C@@H](CC)N(S(=O)(=O)c2ccc(C)cc2)[C@H]1c1ccccc1,"inconclusive: 29.1 µM [cytotoxic, single point]",
Fc1cccc(NC(=S)Nc2cccnc2)c1,inactive,
N#CC1=C(N)Oc2c(ccc3ccccc23)C1c1ccsc1 (configuration not stated),active: 6.51 µM,
O=C(CNc1cccc([N+](=O)[O-])c1)N1CCN(S(=O)(=O)c2ccc(Cl)cc2)CC1,inactive,
CSc1nc(N)c(C#N)c(-c2ccc(Cl)cc2)c1C#N,"inconclusive: 29.1 µM [cytotoxic, single point]",
Cn1nc(C(C)(C)C)cc1C(=O)NCc1cc(F)cc2c1OCOC2,"inconclusive: 29.1 µM [cytotoxic, single point]",
Cc1c(NC(=O)Nc2ccc(Cl)c(Cl)c2)sc2nc3n(c(=O)c12)CCC(C)CC3 (configuration not stated),"inconclusive: 6.51 µM [rising, single point]",
O=C(Nc1nc2n(n1)C(c1ccc(F)cc1)C=C(c1ccc(Cl)cc1)N2)c1ccc([N+](=O)[O-])cc1 (configuration not stated),"inconclusive: 18.4 µM [cytotoxic, single point]",
CCCCCCCCCCCCCCCC[n+]1ccc(/C=C/c2c(C)[nH]c3ccccc23)cc1,active: 1.3 µM,
COc1ccc(NC(=O)c2cnn(-c3ccc(C)c(C)c3)c2C2CCNCC2)cc1OC,inactive,
CC(C)CCOP(=O)(c1ccc(N(C)C)cc1)C(O)c1ccc(Cl)cc1Cl (configuration not stated),"inconclusive: 9.2 µM [cytotoxic, single point]",
O=c1cnn(Cc2c(Cl)cccc2Cl)c2ccccc12,"inconclusive: 9.2 µM [rising, partial curve, poor fit]",
O=C(NCCNC(=O)c1cc(OCC(F)(F)F)ccc1OCC(F)(F)F)Nc1cccc(C(F)(F)F)c1,"inconclusive: 29.1 µM [cytotoxic, single point]",
CCCNC(=O)Cn1nc(-c2ccc(OC)cc2)c2cnc3ccc(F)cc3c21,inactive,
CC(=O)Nc1nnc(S(=O)(=O)N2CCN(c3ccc(Cl)cc3[N+](=O)[O-])CC2)s1,"inconclusive: 32.6 µM [cytotoxic, single point]",
O=C(CC(=O)NCc1cccnc1)NCc1cccnc1,inactive,
CCOc1ccc(S(=O)(=O)N2CCOCC2)cc1NC(=O)CSCc1ccc(C)cc1,active: 18.4 µM,
Cn1c(C(=O)N2CCN(C(=O)c3ccco3)CC2)cc2c(=O)n(C)c3ccccc3c21,inactive,
COc1ccccc1CC(=O)Nc1ccc2nc(Nc3cccc(C(F)(F)F)c3)cc(C)c2c1,"inconclusive: 16.4 µM [cytotoxic, partial curve, poor fit]",

# 2 entries drawn at random from the list so far:
Structure (SMILES),Potency,"activity change, negative = cytotoxic"
CCOC(=O)c1cccc(NC(=O)CSc2nncn2-c2ccccn2)c1,inactive,
CC(C)CCOP(=O)(c1ccc(N(C)C)cc1)C(O)c1ccc(Cl)cc1Cl (configuration not stated),"inconclusive: 9.2 µM [cytotoxic, single point]",

# (list continues)

Structure (SMILES),Potency,"activity change, negative = cytotoxic"
CC1CC(C)(C)N(C(=O)CN2CCN(C)CC2)c2ccccc21 (configuration not stated),"inconclusive: 5.17 µM [rising, partial curve, poor fit]",
CC(C)CNC(=O)C1CCN(Cc2ccc(OCc3ccccc3)cc2)CC1,inactive,
COc1ccc(S(=O)(=O)N(C)C[C@H]2OCCCC[C@H](C)Oc3ccc(NC(=O)Nc4ccc(F)cc4)cc3C(=O)N([C@H](C)CO)C[C@H]2C)cc1,inactive,
NN=C1c2cc(S(=O)(=O)NCCO)ccc2-c2ccc(S(=O)(=O)NCCO)cc21,"inconclusive: 16.4 µM [rising, partial curve, poor fit]",
Cc1cc(C)c(OCC(=O)N/N=C/c2ccc3c(c2)OCO3)c(C)c1,"inconclusive: 29.1 µM [cytotoxic, single point]",
Cc1ccc(Cc2cnc(NC(=O)/C(C#N)=C/c3ccc(-c4ccc([N+](=O)[O-])cc4)o3)s2)cc1,"inconclusive: 35.5 µM [cytotoxic, single point]",
Cc1ccc(Nc2nc(N)c([N+](=O)[O-])c(NCc3ccco3)n2)cc1,"inconclusive: 25.9 µM [cytotoxic, single point]",
c1ccc(OCCOCCSc2ncccn2)cc1,inactive,
CC1CCc2c(sc(NC(=S)NC(=O)c3ccccc3)c2C#N)C1 (configuration not stated),"inconclusive: 32.6 µM [rising, partial curve, poor fit]",
CCCOc1c(OC)cccc1C1CC(=O)Nc2cc3c(cc21)OCCO3 (configuration not stated),"inconclusive: 29.1 µM [cytotoxic, single point]",
CCO[C@H]1OC(C(=O)NCc2nc3ccccc3[nH]2)=C[C@@H](c2ccc(C(F)(F)F)cc2)[C@@H]1CCCO,"inconclusive: 29.1 µM [cytotoxic, single point]",
O=C(NCCC1=CCCCC1)C(c1ccccc1)c1ccccc1,"inconclusive: 29.1 µM [cytotoxic, single point]",
CCc1c(C)nc2c(C#N)c[nH]n2c1=O,"inconclusive: 18.4 µM [rising, partial curve]",
CCN(CC)c1ccc(/C=C/c2sc3ccccc3[n+]2CCCCI)cc1,"inconclusive: 6.51 µM [cytotoxic, partial curve, poor fit]",
CC(C)C(=O)Nc1nc2ccc(S(C)(=O)=O)cc2s1,"inconclusive: 16.4 µM [cytotoxic, partial curve, poor fit]",
CNc1cccnc1C=NNC(N)=S,"inconclusive: 3.66 µM [cytotoxic, partial curve, poor fit]",
N#Cc1cc2c(nc1SCC(=O)O)CCCC2,inactive,
O=c1[nH]cnc2c1sc1nc(-c3ccccc3)c3c(c12)CCCC3,inactive,
CCOC(=O)C1(C)CCCN1C(=O)c1ccc(N(C)C)cc1 (configuration not stated),inactive,
CCOC1=C2CN(S(=O)(=O)c3ccc(C)cc3)C(c3cccc(Cl)c3)CC2NC(c2ccccc2)C1 (configuration not stated),"inconclusive: 18.4 µM [cytotoxic, single point]",
COc1cccc(CN2C(=O)C3(SCC(=O)N3c3ccc(C)c(Cl)c3)c3ccccc32)c1 (configuration not stated),active: 13 µM,

# Rewritten with bars between the fields: entries from further up.
Structure (SMILES) | Potency | activity change, negative = cytotoxic
CCc1c(C)nc2c(C#N)c[nH]n2c1=O | inconclusive: 18.4 µM [rising, partial curve] | 
CCN(CC)c1ccc(/C=C/c2sc3ccccc3[n+]2CCCCI)cc1 | inconclusive: 6.51 µM [cytotoxic, partial curve, poor fit] | 
CC(C)C(=O)Nc1nc2ccc(S(C)(=O)=O)cc2s1 | inconclusive: 16.4 µM [cytotoxic, partial curve, poor fit] | 
